Data: patent US20240336896A1, “MODIFIED PRODUCER CELLS FOR EXTRACELLULAR VESICLE PRODUCTION” (LONZA SALES AG, priority 2021, published 2024)
At least one structure is not confirmed: it was looked up by name or label, or the drawing left a doubt.

Test system: 1919 HiBit reporter cell line
Assay: HiBit luciferase reporter assay of EV production, agent supplemented into media
Format: cell-based
Conditions: simvastatin alone in HiBit cultures, Example 7

With `CCC(C)(C)C(=O)O[C@H]1C[C@@H](C)C=C2C=C[C@H](C)[C@H](CC[C@@H]3C[C@@H](O)CC(=O)O3)[C@H]21` [Simvastatin, simvastatin] the exosome production was “increase”.
